Measured data: PubChem BioAssay AID504793 (Drosophila RNAi Screening Center, 2011)

Screen: 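Knock-downs allowing continued mitosis even though DNA is damaged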 (primary screen)
Cell system: Drosophila S2R+ cells
Reagents: long dsRNA against Drosophila genes, about 0.25 µg dsRNA per well
Timing: 4 days of dsRNA, then 4 hours of drug before read-out
Conditions: doxorubicin 0.5 µM for 4 hours to cause double-strand breaks, in cells also given a low, harmless dose of dsRNA against nbs to sensitise the assay
Read-out: 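Per-well count of mitotic cells stained for phospho-histone H3 after doxorubicin exposure, used as mitotic index; counts are raw and not normalised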
Scale: mitotic cells: higher = more cells in mitosis, weaker G2 arrest
Rule for the call: 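a call needs confirmation in secondary tests, with other dsRNAs and a check of mitotic timing without damage, not just a high primary count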
Meaning of the calls: active = confirmed in follow-up tests; inactive = not confirmed
The screen tested about 23,000 reagents; shown is a random part of those with a known target gene and a result. In the full data, 62 (0.27%) got an active call. 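Calls come from follow-up tests whose scores are not deposited, so confirmed genes may have low counts here; counts are not normalised per plate.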 Raw values vary from plate to plate and are shown uncorrected. A number with no mark means an inactive call. A plus sign joins genes that one reagent is predicted to hit.

| gene | DRSC id | mitotic cells, replicate 1 | mitotic cells, replicate 2 |
| --- | --- | --- | --- |
| Ubc10 | DRSC07568 | 8 | – |
| Ubc10 | DRSC23795 | 4 | – |
| Fcp1 | DRSC04121 | 1 | – |
| Fcp1 | DRSC26715 | 11 | – |
| Mur2B | DRSC18545 | 6 | – |
| Mur2B | DRSC18546 | 12 | – |
| kuz | DRSC03555 | 2 | – |
| G6P | DRSC27121 | 6 | – |
| Trs20 | DRSC10489 | 5 | – |
| CG15279 | DRSC01935 | 9 | – |
| CG15279 | DRSC27347 | 9 | – |
| CG9919 | DRSC20219 | 6 | – |
| Hsp70Bb + Hsp70Ba + Hsp70Bc + 1 more | DRSC21247 | 7 | – |
| Hsp70Bb + Hsp70Ba + Hsp70Bc + 1 more | DRSC21248 | 4 | – |
| CG1578 | DRSC19729 | 5 | – |
| CG1578 | DRSC26369 | 6 | – |
| mRpL14 | DRSC18597 | 6 | – |
| mRpL14 | DRSC24034 | 6 | – |
| CG14636 | DRSC12223 | 7 | – |
| CG14636 | DRSC28578 | 6 | – |
| Cyp311a1 | DRSC20239 | 6 | – |
| Cyp311a1 | DRSC27062 | 10 | – |
| HP5 | DRSC19773 | 2 | – |
| HP5 | DRSC27040 | 4 | – |
| RpL24-like | DRSC16111 | 5 | – |
| CG3589 | DRSC04392 | 5 | – |
| CG3589 | DRSC26755 | 3 | – |
| CG17999 | DRSC04300 | 5 | – |
| CG34325 | DRSC19802 | 9 | – |
| CG34325 | DRSC20200 | 5 | – |
| ss | DRSC17069 | 6 | – |
| CG12674 | DRSC00348 | 2 | – |
| CG3092 | DRSC04336 | 6 | – |
| CG3092 | DRSC30054 | 6 | – |
| Cyp6g1 | DRSC07386 | 7 | – |
| CSN4 | DRSC07350 | 12 | – |
| nAChRalpha4 | DRSC11925 | 10 | – |
| nAChRalpha4 | DRSC26817 | 5 | – |
| CG33461 | DRSC22892 | 13 | – |
| CG33461 | DRSC26007 | 6 | – |
| mRpL33 | DRSC18319 | 6 | – |
| CG33007 (retired record) | DRSC21845 | 12 | – |
| CG33007 (retired record) | DRSC28341 | 6 | – |
| CG12692 | DRSC17881 | 14 | – |
| CG3868 | DRSC10380 | 3 | – |
| CG30484 | DRSC05457 | 2 | – |
| Mrp5 | DRSC15597 | 8 | – |
| Mrp5 | DRSC15598 | 11 | – |
| Mrp5 | DRSC25669 | 11 | – |
| CG4259 | DRSC00645 | 9 | – |
| CG4259 | DRSC29614 | 3 | – |
| CG17570 | DRSC01770 | 5 | – |
| CG17570 | DRSC03754 | 6 | – |
| CAH1 + Adat1 | DRSC02009 | 3 | – |
| Got2 | DRSC00643 | 3 | – |
| Nasp | DRSC27430 | 6 | – |
| CG9068 | DRSC07329 | 7 | – |

The list goes on, starting with the last 20 of the part before.
| gene | DRSC id | mitotic cells, replicate 1 | mitotic cells, replicate 2 |
| --- | --- | --- | --- |
| nAChRalpha4 | DRSC26817 | 5 | – |
| CG33461 | DRSC22892 | 13 | – |
| CG33461 | DRSC26007 | 6 | – |
| mRpL33 | DRSC18319 | 6 | – |
| CG33007 (retired record) | DRSC21845 | 12 | – |
| CG33007 (retired record) | DRSC28341 | 6 | – |
| CG12692 | DRSC17881 | 14 | – |
| CG3868 | DRSC10380 | 3 | – |
| CG30484 | DRSC05457 | 2 | – |
| Mrp5 | DRSC15597 | 8 | – |
| Mrp5 | DRSC15598 | 11 | – |
| Mrp5 | DRSC25669 | 11 | – |
| CG4259 | DRSC00645 | 9 | – |
| CG4259 | DRSC29614 | 3 | – |
| CG17570 | DRSC01770 | 5 | – |
| CG17570 | DRSC03754 | 6 | – |
| CAH1 + Adat1 | DRSC02009 | 3 | – |
| Got2 | DRSC00643 | 3 | – |
| Nasp | DRSC27430 | 6 | – |
| CG9068 | DRSC07329 | 7 | – |
| CG31802 | DRSC02459 | 5 | – |
| CG13310 | DRSC09981 | 3 | – |
| CG13310 | DRSC28258 | 2 | – |
| DCTN4-p62 | DRSC06101 | 12 | – |
| DCTN4-p62 | DRSC27900 | 10 | – |
| nrv1 | DRSC03382 | 4 | – |
| so | DRSC23096 | 6 | – |
| CG30284 | DRSC22150 | 9 | – |
| CG31253 + CG31131 | DRSC13839 | 16 | – |
| yip3 | DRSC04724 | 4 | – |
| oc | DRSC25006 | 2 | – |
| CG33303 | DRSC02848 | 5 | – |
| Debcl | DRSC04965 | 1 | – |
| Debcl | DRSC30010 | 7 | – |
| trpl | DRSC06728 | 9 | – |
| trpl | DRSC06729 | 7 | – |
| trpl | DRSC25485 | 3 | – |
| CG1486 | DRSC20508 | 3 | – |
| CG1486 | DRSC28958 | 9 | – |
| CycD | DRSC20233 | 8 | – |
| CycD | DRSC25031 | 1 | – |
| Usp8 | DRSC15876 | 8 | – |
| beta3GalTII | DRSC07253 | 4 | – |
| beta3GalTII | DRSC29091 | 2 | – |
| CG10089 | DRSC09695 | 3 | – |
| CG10089 | DRSC25988 | 4 | – |
| l(2)09851 | DRSC04858 | 7 | – |
| CG9853 | DRSC12343 | 6 | – |
| CG9853 | DRSC22840 | 10 | – |
| CG9853 | DRSC28399 | 7 | – |
| IKKepsilon | DRSC03550 | 10 | – |
| metro | DRSC06341 | 6 | – |
| metro | DRSC06725 | 3 | – |
| metro | DRSC27336 | 7 | – |
| CG11666 | DRSC22379 | 3 | – |
| CG17597 | DRSC02630 | 3 | – |
| CG17597 | DRSC24788 | 10 | – |
| TwdlY | DRSC19153 | 4 | 13 |
| crp | DRSC03515 | 2 | – |
| slf | DRSC00583 | 1 | – |
| slf | DRSC27361 | 9 | – |
| Ssl1 | DRSC11634 | 11 | – |
| Syx16 | DRSC20507 | 1 | – |
| Syx16 | DRSC27163 | 5 | – |
| Gga | DRSC18260 | 3 | – |
| Gga | DRSC27761 | 5 | – |
| Ssb-c31a | DRSC03443 | 5 | – |
| Ssb-c31a | DRSC28004 | 5 | – |
| CG7991 | DRSC08609 | 3 | – |
| CG7991 | DRSC29595 | 8 | – |
| CG10996 | DRSC19363 | 9 | – |
| hig | DRSC07628 | 3 | – |
| hig | DRSC22827 | 5 | – |
| hig | DRSC22899 | 14 | – |
| hig | DRSC26925 | 6 | – |
| CG4679 | DRSC06880 | 5 | – |
| CG4679 | DRSC28357 | 4 | – |
| Ir68a | DRSC10599 | 4 | – |
| nerfin-2 | DRSC14547 | 5 | – |
| nerfin-2 | DRSC28542 | 7 | – |
| jub | DRSC19367 | 5 | – |
| jub | DRSC26225 | 10 | – |
| CG13124 | DRSC02220 | 6 | – |
| CG13124 | DRSC27328 | 6 | – |
| CG14929 + CG4970 | DRSC02411 | 7 | – |
| CG14929 + CG4970 | DRSC02796 | 4 | – |
| CG14322 | DRSC14801 | 8 | – |
| CG13877 + pyx | DRSC08347 | 4 | – |
| Prosalpha6 | DRSC03401 | 62 | – |
| Cyp4p2 | DRSC07373 | 10 | – |
| Cyp4p2 | DRSC26900 | 2 | – |
| Ca-beta | DRSC02406 | 2 | – |
| Ca-beta | DRSC02407 | 6 | – |
| Ca-beta | DRSC03285 | 4 | – |
| Ca-beta | DRSC21432 | 20 | – |
| Ca-beta | DRSC23813 | 4 | – |
| CG10163 | DRSC09710 | 2 | – |
| wge | DRSC15246 | 6 | – |
| wge | DRSC15672 | 8 | – |
| CG5399 | DRSC15791 | 5 | – |
| CG5399 | DRSC25357 | 6 | – |
| CG16727 | DRSC15139 | 5 | – |
| CG16727 | DRSC26820 | 7 | – |
